Laboratory results: patent US4952592A, “1,4-dihydro 2,6-dimethyl 4-(2,3-methylenedioxyphenyl) 3-alkoxy carbonyl 5-[2-(substituted amino)ethoxy]carbonyl pyridine” (Instituto de Investigacion Y Desarrollo Quimicobiologico …, priority 1987, dated 1990)
For at least one compound, name, drawing or mass did not settle the structure.

Legend:
[1] = tested on: conscious renal hypertensive rats; assay: antihypertensive activity on conscious renal hypertensive rats (systolic blood pressure, tail sleeve); type: in vivo, rat; settings: i.p.; for antihypertensive activity: 1 mg/kg, in words
Protocol: (2)1- antihypertensive activity:
A few compounds according to the invention were tested for their antihypertensive activity on conscious renal hypertensive rats. The systolic blood pressure was measured on the tail of unanaesthetized rats by means of an inflatable sleeve and an L.H.5 000 digital pressure gauge (Letica Instruments, Barcelona, Spain). The measurements were carried out before the i.p. administration of the test substance, and then 30 minutes, 1, 2, 4 and 5 hours after administration. The animals were maintained in preheated plastic cylinders during the measurements. Rats having a blood pressure of less than 160 mmHg were eliminated from the experiment.
Each compound was administered in 5% strength suspension (CMC) by i.p. injection.

coronary vessels = assay: Vascular activity in anaesthetized dogs: regional blood flows and haemodynamics with coronary artery occlusion; type: in vivo; settings: i.v., in words
Protocol: The beneficial effects on the oxygen supply/consumption balance may be accompanied by a modification of the blood distribution within the wall, which will be better irrigated, and by an increase in the blood flow in the collateral vessels during an acute occlusion of the coronary artery. The effects of the compound of Example 11, at doses of 10 and less than 10 μg/kg i.v., were explored in anaesthetized dogs in order to determine: the regional (endocardium, epicardium) myocardial blood flows in the ischaemic and non-ischaemic zones, the ratio between the endo- and epicardial flows and the ratio of the flows in the ischaemic/nonischaemic zone, the regional blood flows in other areas (spleen, pancreas, kidney, liver, stomach, intestines, muscle, skin) in order to define the selectivity of action of the compound. The studies were carried out on 6 adult dogs, according to the technique of […] and […]. Pharmacol. 1985 - 16 - 59 - 74 and J. Pharmacol. Exp. Ther. 1982, 221, 740-747). In addition, the haemodynamic parameters (heart rate, arterial blood pressure, left ventricular pressure, cardiac flow, total peripheral resistance, systolic ejection volume, cardiac work, contractility index) were monitored at regular times, before and after 3 successive short periods (12 minutes) of total occlusion of the coronary artery, the injection of radioactive microspheres enabling the regional flows to be evaluated. After the first period of ischaemia, the parameters were allowed to return to normal before the test compound was injected, the second occlusion was then performed and this procedure was repeated, the reversibility of the parameters being complete approximately 45 minutes after each occlusion. The test compound was administered in aqueous-alcoholic solution (0.1 mg/ml) on the basis of 0.1 ml/kg i.v.

Compound	antihypertensive activity [1]	duration of antihypertensive effects (in words) ([1]; compared with Example 11)	contractility (coronary vessels)	coronary vasodilatory properties (coronary vessels)	flow in the vessels collateral to the ischaemic zones (coronary vessels)	myocardial oxygen consumption (coronary vessels)	resistances in the other tissues and organs (coronary vessels)	endocardial flow (coronary vessels; ischaemic zones)
CCOC(=O)C1=C(C)NC(C)=C(C(=O)OCCN(C)Cc2ccc(F)cc2)C1c1cccc2c1OCO2 (stereo not drawn) [Example 8, 3-Ethyl 5-{2-[N-methyl-N-(4-fluorobenzyl)amino]ethyl}1,4-dihydro-2,6-dimethyl-4-(2,3-methylenedioxyphenyl)-3,5-pyridinedicarboxylate]	marked antihypertensive activity	more temporary						
CC1=C(C(=O)OCCN(C)Cc2ccc(F)cc2)C(c2cccc3c2OCO3)C(C(=O)OC(C)C)=C(C)N1 (stereo not drawn) [Example 11, 3-Isopropyl 5-{2-[N-methyl-N-(4-fluorobenzyl)amino]ethyl}1,4-dihydro-2,6-dimethyl-4-(2,3-methylenedioxyphenyl)3,5-pyridinedicarboxylate]	marked antihypertensive activity		remains unchanged	potent coronary vasodilatory properties	increased flow	reduces the myocardial oxygen consumption	unmodified or slightly decreased	maintained
